Not every detail of the peptide structures is certain; ends, links or a residue may be inferred. No end group written: not given here.
Molecular target: T1, HLA-A2 (Homo sapiens, UniProt P04439, D140Y/D185E/D98H/E176V/E277Q/G131W/G231S/I119V/I121R/I166T/I218V/L300P/L318F/N151K/N90K/P208A/P217A/Q86G/Q94H/R138H/R169H/T345S)
T1 construct: T2 cells were cultured at 26° C. overnight; endogenous in cells; host or cells: T2 cells
Assay: HLA-A2-binding assay (T2 cells, HLA-A2 antibody, flow cytometer)
Assay type: cell-based
Settings: positive controls CMV peptide and Influenza peptide; FIG. 10

## KLLFIGTIKV [KLL peptide, KLLFIGTIKV]
  FITC fluorescence intensity (HLA-A2 on T2 cell surface): comparable fluorescence intensity to that of the CMV peptide and the Influenza peptide

## LLFIGTIKV [LLF peptide, LLFIGTIKV]
  FITC fluorescence intensity (HLA-A2 on T2 cell surface): comparable fluorescence intensity to that of the CMV peptide and the Influenza peptide

— patent US11028136B2, “Tumor antigen peptide” (Sapporo Medical University, priority 2014, dated 2021)
